Among the data in the supplement of paper PMC10849652 are log2 fold change values, retold here.

Chains of the proteins cited; added tags and fusions are not shown. Lines headed by an entry give the natural chain unless they say otherwise; changes in a name come on top.
UniProt Q9BVG4: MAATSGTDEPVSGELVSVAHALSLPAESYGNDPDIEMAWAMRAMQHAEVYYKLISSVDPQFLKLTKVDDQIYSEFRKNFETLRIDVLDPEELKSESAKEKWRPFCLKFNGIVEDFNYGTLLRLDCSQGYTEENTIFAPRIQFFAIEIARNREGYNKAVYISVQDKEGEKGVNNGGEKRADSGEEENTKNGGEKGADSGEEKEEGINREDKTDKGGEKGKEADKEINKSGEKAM
UniProt Q9UBM1: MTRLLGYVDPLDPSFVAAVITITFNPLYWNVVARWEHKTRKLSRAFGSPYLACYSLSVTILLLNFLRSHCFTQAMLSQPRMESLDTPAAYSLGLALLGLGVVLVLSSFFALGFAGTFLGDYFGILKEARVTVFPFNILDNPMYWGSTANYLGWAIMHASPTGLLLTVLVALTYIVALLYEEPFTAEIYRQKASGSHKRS
UniProt P18669: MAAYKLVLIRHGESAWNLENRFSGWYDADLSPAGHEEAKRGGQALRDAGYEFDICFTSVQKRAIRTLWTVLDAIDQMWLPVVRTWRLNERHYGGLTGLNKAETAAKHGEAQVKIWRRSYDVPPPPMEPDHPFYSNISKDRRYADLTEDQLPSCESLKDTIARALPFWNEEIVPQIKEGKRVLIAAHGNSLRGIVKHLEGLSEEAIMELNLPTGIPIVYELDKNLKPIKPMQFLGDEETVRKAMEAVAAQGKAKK
UniProt O15530: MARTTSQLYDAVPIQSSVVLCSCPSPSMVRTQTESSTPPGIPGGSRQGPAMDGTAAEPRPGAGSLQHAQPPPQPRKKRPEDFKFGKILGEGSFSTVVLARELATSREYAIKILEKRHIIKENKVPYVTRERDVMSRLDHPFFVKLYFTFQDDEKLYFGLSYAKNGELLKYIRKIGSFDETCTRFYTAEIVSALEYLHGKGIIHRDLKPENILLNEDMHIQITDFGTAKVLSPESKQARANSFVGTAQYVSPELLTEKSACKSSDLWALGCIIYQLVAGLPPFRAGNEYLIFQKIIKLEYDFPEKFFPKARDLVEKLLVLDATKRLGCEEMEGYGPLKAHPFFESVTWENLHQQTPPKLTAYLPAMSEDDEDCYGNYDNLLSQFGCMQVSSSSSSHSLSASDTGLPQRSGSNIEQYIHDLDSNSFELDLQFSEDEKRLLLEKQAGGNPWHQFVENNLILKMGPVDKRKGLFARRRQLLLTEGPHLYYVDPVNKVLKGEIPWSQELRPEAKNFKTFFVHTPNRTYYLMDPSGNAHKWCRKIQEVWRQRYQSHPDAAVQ
UniProt Q86SE9: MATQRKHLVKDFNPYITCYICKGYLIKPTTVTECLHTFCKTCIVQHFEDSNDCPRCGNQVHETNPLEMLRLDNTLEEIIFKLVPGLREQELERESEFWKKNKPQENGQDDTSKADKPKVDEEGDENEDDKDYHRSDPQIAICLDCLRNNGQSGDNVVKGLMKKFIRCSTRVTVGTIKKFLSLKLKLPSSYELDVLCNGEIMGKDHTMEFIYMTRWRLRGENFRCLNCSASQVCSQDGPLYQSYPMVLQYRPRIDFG
UniProt Q9UHG3: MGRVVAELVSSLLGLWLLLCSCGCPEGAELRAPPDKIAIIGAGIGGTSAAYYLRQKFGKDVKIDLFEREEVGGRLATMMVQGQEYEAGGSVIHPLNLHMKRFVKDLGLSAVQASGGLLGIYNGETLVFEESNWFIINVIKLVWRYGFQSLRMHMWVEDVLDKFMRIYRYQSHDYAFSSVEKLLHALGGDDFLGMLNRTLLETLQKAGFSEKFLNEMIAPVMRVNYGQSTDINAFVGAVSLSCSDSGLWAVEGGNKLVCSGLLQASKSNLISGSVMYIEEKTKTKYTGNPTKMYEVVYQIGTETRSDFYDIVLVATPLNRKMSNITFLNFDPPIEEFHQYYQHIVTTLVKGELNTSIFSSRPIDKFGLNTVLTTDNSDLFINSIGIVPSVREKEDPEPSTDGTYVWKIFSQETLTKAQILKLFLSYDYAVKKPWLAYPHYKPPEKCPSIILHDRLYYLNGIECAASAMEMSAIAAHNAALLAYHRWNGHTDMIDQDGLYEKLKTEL
UniProt Q8WUM4: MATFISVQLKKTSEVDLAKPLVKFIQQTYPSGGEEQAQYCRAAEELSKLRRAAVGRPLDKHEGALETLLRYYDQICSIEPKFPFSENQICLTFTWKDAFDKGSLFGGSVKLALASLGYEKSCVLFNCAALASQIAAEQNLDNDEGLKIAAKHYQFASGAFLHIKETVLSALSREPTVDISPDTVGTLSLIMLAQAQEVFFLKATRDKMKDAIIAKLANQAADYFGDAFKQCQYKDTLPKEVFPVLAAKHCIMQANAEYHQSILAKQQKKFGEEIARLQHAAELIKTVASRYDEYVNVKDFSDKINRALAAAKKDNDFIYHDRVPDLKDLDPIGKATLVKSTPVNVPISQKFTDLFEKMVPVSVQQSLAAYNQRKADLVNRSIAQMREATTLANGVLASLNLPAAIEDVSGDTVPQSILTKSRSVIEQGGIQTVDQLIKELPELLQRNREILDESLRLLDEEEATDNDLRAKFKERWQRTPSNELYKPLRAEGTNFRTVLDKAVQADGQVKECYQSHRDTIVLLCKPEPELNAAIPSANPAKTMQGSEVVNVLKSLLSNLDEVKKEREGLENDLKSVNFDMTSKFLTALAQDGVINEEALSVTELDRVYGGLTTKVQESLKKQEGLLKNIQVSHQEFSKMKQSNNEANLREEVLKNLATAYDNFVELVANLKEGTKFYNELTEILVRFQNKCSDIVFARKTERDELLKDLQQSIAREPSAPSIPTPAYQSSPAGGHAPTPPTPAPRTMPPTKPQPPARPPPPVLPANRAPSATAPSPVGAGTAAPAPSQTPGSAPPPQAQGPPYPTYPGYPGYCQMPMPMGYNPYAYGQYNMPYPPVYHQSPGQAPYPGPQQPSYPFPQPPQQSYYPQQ
UniProt P12955: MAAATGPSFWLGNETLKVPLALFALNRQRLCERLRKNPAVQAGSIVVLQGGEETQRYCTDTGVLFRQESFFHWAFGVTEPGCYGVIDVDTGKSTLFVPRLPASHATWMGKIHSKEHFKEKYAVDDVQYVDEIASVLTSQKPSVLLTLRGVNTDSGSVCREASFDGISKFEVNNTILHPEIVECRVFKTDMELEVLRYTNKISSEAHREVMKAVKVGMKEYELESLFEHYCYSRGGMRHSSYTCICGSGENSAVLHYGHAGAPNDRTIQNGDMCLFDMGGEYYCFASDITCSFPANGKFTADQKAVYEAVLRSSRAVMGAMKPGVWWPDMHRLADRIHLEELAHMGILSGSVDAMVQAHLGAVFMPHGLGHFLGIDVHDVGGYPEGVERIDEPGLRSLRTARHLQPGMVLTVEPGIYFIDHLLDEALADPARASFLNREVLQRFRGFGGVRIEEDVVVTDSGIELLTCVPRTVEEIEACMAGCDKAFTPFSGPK
UniProt Q96KB5: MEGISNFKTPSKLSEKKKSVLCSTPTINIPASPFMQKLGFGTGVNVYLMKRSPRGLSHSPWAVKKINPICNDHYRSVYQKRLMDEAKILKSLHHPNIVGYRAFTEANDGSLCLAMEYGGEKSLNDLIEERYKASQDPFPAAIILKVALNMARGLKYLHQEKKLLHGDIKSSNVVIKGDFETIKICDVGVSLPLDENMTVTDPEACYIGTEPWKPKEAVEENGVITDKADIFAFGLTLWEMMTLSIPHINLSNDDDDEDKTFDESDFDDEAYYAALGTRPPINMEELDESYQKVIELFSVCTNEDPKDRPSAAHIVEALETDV
UniProt P40425: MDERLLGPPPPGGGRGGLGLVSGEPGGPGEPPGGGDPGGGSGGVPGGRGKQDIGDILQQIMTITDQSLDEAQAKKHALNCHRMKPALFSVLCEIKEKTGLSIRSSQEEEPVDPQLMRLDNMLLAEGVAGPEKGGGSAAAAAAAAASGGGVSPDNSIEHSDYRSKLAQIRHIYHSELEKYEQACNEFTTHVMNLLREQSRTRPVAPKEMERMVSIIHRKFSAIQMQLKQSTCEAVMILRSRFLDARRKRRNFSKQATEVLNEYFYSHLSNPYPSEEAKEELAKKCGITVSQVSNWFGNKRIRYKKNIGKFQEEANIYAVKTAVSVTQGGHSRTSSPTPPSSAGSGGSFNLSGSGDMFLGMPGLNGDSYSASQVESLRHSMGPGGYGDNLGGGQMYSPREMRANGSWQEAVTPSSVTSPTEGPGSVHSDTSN
UniProt P52209: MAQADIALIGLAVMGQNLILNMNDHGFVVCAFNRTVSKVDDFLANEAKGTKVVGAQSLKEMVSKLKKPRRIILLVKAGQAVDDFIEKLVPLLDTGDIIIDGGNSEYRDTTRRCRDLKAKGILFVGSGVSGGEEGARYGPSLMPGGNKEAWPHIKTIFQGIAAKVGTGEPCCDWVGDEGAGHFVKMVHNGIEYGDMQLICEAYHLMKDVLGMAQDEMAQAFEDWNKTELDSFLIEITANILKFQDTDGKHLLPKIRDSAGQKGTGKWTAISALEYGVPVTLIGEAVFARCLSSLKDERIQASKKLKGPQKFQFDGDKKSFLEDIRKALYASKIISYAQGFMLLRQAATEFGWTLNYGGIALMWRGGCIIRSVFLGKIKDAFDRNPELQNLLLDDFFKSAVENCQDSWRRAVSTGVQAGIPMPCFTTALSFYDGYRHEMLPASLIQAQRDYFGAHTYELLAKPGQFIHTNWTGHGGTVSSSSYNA
UniProt Q8NEN9: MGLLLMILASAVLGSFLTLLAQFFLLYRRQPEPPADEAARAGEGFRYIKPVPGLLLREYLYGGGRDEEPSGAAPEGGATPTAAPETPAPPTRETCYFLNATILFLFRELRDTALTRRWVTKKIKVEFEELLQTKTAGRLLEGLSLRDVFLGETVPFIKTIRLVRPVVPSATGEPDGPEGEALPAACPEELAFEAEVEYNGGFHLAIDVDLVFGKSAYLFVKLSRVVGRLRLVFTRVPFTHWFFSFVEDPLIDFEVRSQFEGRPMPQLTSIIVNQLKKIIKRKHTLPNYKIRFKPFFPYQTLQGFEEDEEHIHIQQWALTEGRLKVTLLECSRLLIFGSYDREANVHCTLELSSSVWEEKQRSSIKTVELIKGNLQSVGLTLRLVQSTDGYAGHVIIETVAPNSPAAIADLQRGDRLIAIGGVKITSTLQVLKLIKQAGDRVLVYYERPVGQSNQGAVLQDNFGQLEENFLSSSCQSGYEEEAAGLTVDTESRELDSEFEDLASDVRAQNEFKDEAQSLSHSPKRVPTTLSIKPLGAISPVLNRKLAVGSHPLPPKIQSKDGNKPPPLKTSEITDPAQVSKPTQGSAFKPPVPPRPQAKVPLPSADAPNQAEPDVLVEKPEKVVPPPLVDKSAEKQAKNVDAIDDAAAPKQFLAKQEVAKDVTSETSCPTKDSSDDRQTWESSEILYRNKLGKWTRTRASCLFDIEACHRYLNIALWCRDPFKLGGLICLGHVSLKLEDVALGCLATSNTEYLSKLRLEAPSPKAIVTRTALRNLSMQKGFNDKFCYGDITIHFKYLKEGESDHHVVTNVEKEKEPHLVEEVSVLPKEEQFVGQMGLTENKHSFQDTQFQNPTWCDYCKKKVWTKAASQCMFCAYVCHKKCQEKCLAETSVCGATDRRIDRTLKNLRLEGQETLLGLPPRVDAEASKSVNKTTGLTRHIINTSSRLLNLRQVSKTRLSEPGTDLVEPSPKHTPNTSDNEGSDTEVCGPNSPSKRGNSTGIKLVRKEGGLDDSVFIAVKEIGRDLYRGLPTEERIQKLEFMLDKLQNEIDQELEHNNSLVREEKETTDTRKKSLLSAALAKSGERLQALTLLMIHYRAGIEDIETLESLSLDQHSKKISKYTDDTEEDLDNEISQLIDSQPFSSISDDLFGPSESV
UniProt P40855: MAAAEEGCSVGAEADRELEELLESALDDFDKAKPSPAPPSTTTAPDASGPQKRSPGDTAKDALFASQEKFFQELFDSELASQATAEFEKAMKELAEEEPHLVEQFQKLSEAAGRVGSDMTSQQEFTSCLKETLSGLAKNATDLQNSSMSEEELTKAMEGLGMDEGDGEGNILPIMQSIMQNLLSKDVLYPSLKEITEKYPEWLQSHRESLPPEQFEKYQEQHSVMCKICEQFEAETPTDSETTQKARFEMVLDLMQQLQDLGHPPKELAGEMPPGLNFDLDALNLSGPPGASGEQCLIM
UniProt Q16875: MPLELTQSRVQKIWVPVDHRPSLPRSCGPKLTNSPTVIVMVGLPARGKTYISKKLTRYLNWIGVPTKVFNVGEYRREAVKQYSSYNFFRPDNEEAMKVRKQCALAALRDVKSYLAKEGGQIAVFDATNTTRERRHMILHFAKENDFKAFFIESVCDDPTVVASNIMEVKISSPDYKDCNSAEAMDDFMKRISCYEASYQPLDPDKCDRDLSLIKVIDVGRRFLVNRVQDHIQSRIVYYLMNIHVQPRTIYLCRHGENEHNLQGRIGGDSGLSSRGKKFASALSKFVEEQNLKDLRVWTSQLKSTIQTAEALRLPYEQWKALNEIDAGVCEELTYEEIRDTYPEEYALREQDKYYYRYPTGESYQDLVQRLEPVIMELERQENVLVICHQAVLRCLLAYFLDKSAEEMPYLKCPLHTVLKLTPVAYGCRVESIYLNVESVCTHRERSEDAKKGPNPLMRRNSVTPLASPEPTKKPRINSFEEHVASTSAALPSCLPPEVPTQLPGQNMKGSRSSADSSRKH

Some of the results follow.

What all share (assay): log2 fold change, soluble protein after heating vs DMSO (PISA); higher = thermal stabilisation; K562 lysate, 10 uM; active = over 0.2 and 3.5 SD of the protein, either way, in both replicates (recomputed)
Compound in experiment [1]: NCC(=O)Nc1ccc(-n2nc(C(F)(F)F)cc2-c2ccc3c(ccc4ccccc43)c2)cc1
The gist of the method:
(§1)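 Following dounce homogenisation of K562 pellets in PBS pH 7.4 with 1 mM MgCl2, crude extract at 1 mg/mL protein was incubated for 30 min with 10 μM compound. Aliquots were then heated for 3 min over 48°C-58°C and pooled, NP-40 was added to 0.5% at 4°C, and soluble protein was recovered as the supernatant at 21,000xg for 90 min. Channel-sum-equalised TMTpro 16plex LC-MS/MS quantified this protein. Each value, from duplicates, is a log-two fold change in thermal stability relative to solvent controls.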

Compound in experiment [2]: O=C(CCCCCCC(=O)Nc1ccccc1)NO [vorinostat]
The gist of the method:
as §1

Compound in experiment [3]: O=C(O)c1ccc2c(c1)nc(Nc1cccc(Cl)c1)c1ccncc12 [silmitasertib]
The gist of the method: as §1

Compound in experiment [4]: O=C1NC(=O)C(c2cnc3ccccn23)=C1c1cn2c3c(cc(F)cc13)CN(C(=O)N1CCCCC1)CC2
The essentials: as §1

Compound in experiment [5]: c1cn2cc(-c3ccc4cn[nH]c4c3)nc(Nc3ccc(N4CCOCC4)cc3)c2n1 [entospletinib]
The essentials: as §1

In the case of PARP9 (UniProt Q8IXQ6), the log2 fold change in experiment [1] is inactive: 0.05; in experiment [2], inactive: -0.164; in experiment [3], inactive: -0.085; in experiment [4] it was inactive: 0.181; in experiment [5] it was inactive: -0.039.

Take PBDC1 (UniProt Q9BVG4): the log2 fold change in experiment [1] is inactive: 0; in experiment [2], inactive: 0.122; in experiment [3] it was inactive: -0.013; in experiment [4], inactive: -0.018; in experiment [5] it was inactive: -0.026.

On to PCSK9 (UniProt Q8NBP7), for which the log2 fold change in experiment [1] was inactive: -0.047; in experiment [2], inactive: 0.075; in experiment [3], inactive: -0.027; in experiment [4] it was inactive: 0.025; in experiment [5], inactive: -0.001.

Take PEMT isoform 2 (UniProt Q9UBM1): in experiment [1], the log2 fold change is inactive: -0.257.

PGAM1 (UniProt P18669): the log2 fold change was inactive: -0.019 in experiment [1]; inactive: 0.114 in experiment [2]; inactive: -0.019 in experiment [3]; inactive: -0.006 in experiment [4]; inactive: -0.006 in experiment [5].

Consider PDPK1 (UniProt O15530), for which the log2 fold change was inactive: -0.056 in experiment [1]; inactive: -0.246 in experiment [2]; inactive: 0.09 in experiment [3]; inactive: 0.004 in experiment [4]; inactive: -0.007 in experiment [5].

As to PCGF5 (UniProt Q86SE9), the log2 fold change is inactive: -0.036 in experiment [1]; inactive: -0.148 in experiment [2]; inactive: 0.038 in experiment [3]; inactive: 0.043 in experiment [4]; inactive: 0.134 in experiment [5].

In the case of PECAM1 (UniProt P16284), the log2 fold change was inactive: -0.031 in experiment [1]; inactive: 0.117 in experiment [2]; inactive: -0.03 in experiment [3]; inactive: 0.068 in experiment [4]; inactive: -0.069 in experiment [5].

On to PCYOX1 (UniProt Q9UHG3), for which the log2 fold change in experiment [1] is inactive: -0.008; in experiment [2], inactive: 0.144; in experiment [3] it was inactive: -0.04; in experiment [4], inactive: -0.03; in experiment [5] it was inactive: -0.052.

Regarding PCGF2 (UniProt P35227), the log2 fold change was inactive: 0.028 in experiment [1]; inactive: -0.047 in experiment [2]; inactive: 0.031 in experiment [3]; inactive: -0.033 in experiment [4]; inactive: -0.091 in experiment [5].

Take PCLO (UniProt Q9Y6V0): the log2 fold change in experiment [1] is inactive: 0.126; in experiment [2], inactive: 0.137; in experiment [3], inactive: -0.014; in experiment [4], inactive: 0.125; in experiment [5] it was inactive: 0.027.

Turning to PDCD6IP (UniProt Q8WUM4), the log2 fold change in experiment [1] was inactive: 0.065; in experiment [2], active: -0.332; in experiment [3] it was inactive: -0.005; in experiment [4] it was inactive: 0.009; in experiment [5], inactive: -0.009.

For the target PDCD6 (UniProt O75340), the log2 fold change in experiment [1] is inactive: -0.118; in experiment [2], inactive: 0.114; in experiment [3] it was inactive: -0.014; in experiment [4], inactive: 0.002; in experiment [5] it was inactive: 0.026.

For PDCD11 (UniProt Q14690), the log2 fold change is inactive: 0.064 in experiment [1]; inactive: -0.032 in experiment [2]; inactive: 0.003 in experiment [3]; inactive: 0.058 in experiment [4]; inactive: 0.029 in experiment [5].

For the target PEPD (UniProt P12955), the log2 fold change in experiment [1] was inactive: -0.003; in experiment [2], inactive: 0.139; in experiment [3], inactive: 0; in experiment [4], inactive: 0.024; in experiment [5], inactive: 0.083.

On to PBK (UniProt Q96KB5), for which the log2 fold change in experiment [1] was inactive: -0.029; in experiment [2], active: -0.269; in experiment [3], inactive: 0.013; in experiment [4], inactive: -0.021; in experiment [5], inactive: 0.035.

Consider PDLIM5 (UniProt Q96HC4), for which the log2 fold change is inactive: -0.008 in experiment [1]; inactive: 0.082 in experiment [2]; inactive: -0.046 in experiment [3]; inactive: 0.004 in experiment [4]; inactive: -0.018 in experiment [5].

For PBX2 (UniProt P40425), the log2 fold change in experiment [1] is inactive: 0.007; in experiment [2] it was inactive: -0.096; in experiment [3], inactive: 0.014; in experiment [4] it was inactive: -0.014; in experiment [5], inactive: 0.019.

Take PGD (UniProt P52209): the log2 fold change in experiment [1] is inactive: 0.036; in experiment [2], inactive: 0.075; in experiment [3] it was inactive: 0.004; in experiment [4], inactive: -0.015; in experiment [5], inactive: -0.002.

Take PDE2A (UniProt O00408): the log2 fold change was inactive: 0.195 in experiment [1]; inactive: 0.117 in experiment [2]; inactive: 0.022 in experiment [3]; inactive: 0.071 in experiment [4]; inactive: 0.01 in experiment [5].

As to PDZD8 (UniProt Q8NEN9), the log2 fold change in experiment [1] was inactive: 0.088; in experiment [2], inactive: -0.219; in experiment [3], inactive: 0.012; in experiment [4] it was inactive: -0.063; in experiment [5], inactive: -0.012.

With PEX19 (UniProt P40855), the log2 fold change was inactive: 0.02 in experiment [1]; inactive: 0.152 in experiment [2]; inactive: 0.013 in experiment [3]; inactive: 0.033 in experiment [4]; inactive: -0.007 in experiment [5].

Consider PDE4DIP (UniProt E9PS60), for which the log2 fold change in experiment [1] is inactive: 0.002; in experiment [2], inactive: -0.157; in experiment [3], inactive: 0.082; in experiment [4] it was inactive: 0.039; in experiment [5], inactive: 0.103.

Regarding PDXK (UniProt O00764), the log2 fold change in experiment [1] is inactive: -0.005; in experiment [2], inactive: 0.073; in experiment [3], inactive: -0.008; in experiment [4], inactive: 0.026; in experiment [5], inactive: -0.009.

Turning to PFKFB3 isoform 4 (UniProt Q16875), the log2 fold change is inactive: 0.025 in experiment [1]; active: -0.34 in experiment [2]; inactive: 0.108 in experiment [3]; inactive: 0.017 in experiment [4]; inactive: -0.006 in experiment [5].
